{
  "source": "patent US20250222069A1",
  "about": "(ACCELERON PHARMA, published 2025)",
  "binders": {"B1": {"name": "Soluble ActRIIB-Fc WT (64A) (Fc fusion, UniProt Q13705 19-119, looked up, not shown: a dimerising Fc or GST)", "chain": "SGRGEAETRECIYYNANWELERTNQSGLERCEGEQDKRLHCYASWANSSGTIELVKKGCWLDDFNCYDRQECVATEENPQVYFCCCEGNFCNERFTHLPEA"}},
  "molecular_target": "T1, GDF11 (UniProt O95390 299-407)",
  "T1 construct": "also called BMP11",
  "T1 sequence (looked up)": "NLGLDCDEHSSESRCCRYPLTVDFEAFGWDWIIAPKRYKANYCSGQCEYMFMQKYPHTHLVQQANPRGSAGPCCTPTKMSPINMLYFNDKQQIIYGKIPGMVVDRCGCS",
  "experiment": "Biacore; ligand coupled to chip, receptor flowed over (table reproduced from WO2006/012627)",
  "note": "No constants are given. Whether binding was seen depends on the method and setting. Some results given as binding are weak or reduced against the parent protein; the word gives no strength. Tags and fused reporters may be left off the sequences shown.",
  "data": [
    {"binder": "B1", "values": [
      {"measurement": "binding", "value": "binds"}
    ]}
  ]
}
